# Experimental data published in the supplement of paper PMC8728848.
# The list shows a part of the results.
# B1: AntigenI/IIA3VP1 (Streptococcus mutans), C9E3B4 (protein)
# chain: AANEADYQAKLTAYQTELARVQKANADAKAAYEAAVAANNAANAALTAENTAIKKRNADAKADYEAKLAKYQADLAKYQKDLADYPVKLKAYEDEQASIKAALAELEKHKNEDGNLTEPSAQNLVYDLEPNANLSLTTDGKFLKASAVDDAFSKSTSKAKYDQKILQLDDLDITNLEQSNDVASSMELYGNFGDKAGWSTTVSNNSQVKWGSVLLERGQSATATYTNLQNSYYNGKKISKIVYKYTVDPKSKFQGQKVWLGIFTDPTLGVFASAYTGQVEKNTSIFIKNEFTFYDEDGKPINFDNALLSVASLNREHNSIEMAKDYSGKFVKISGSSIGEKNGMIYATDTLNFKQGEGGSRWTMYKNSQAGSGWDSSDAPNSWYGAGAIKMSGPNNYVTVGATSATNVMPVSDMPVVPGKDNTDGKKPNIWYSLNGKIRAVNVPKVTKEKPTPPVKPTAPTKPTYETEKPLKPAPVAPNYEKEPTPPTRLEHHHHHH
# Legend:
# Test in all cases: glycan array binding signal (z-score within array); higher = stronger binding
# Conditions in all cases: glycan notation: IUPAC condensed, linker removed
# Gal(a1-3)Gal(b1-3)GlcNAc = biological target: Gal(a1-3)Gal(b1-3)GlcNAc
# Summary of the method: (§1)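 From the Consortium for Functional Glycomics database, 3228 arrays were curated, keeping only those whose protein sequence was available. Binding is given as a within-array Z-score averaged across arrays sharing a protein sequence and across linkers. Negative Z-scores can be read as non-binding.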
# [1] = biological target: Gal(a1-3)Gal(b1-3)GlcNAc(b1-2)Man
# Summary of the method: as §1
# [2] = biological target: Gal(a1-3)Gal(b1-3)GlcNAc(b1-2)Man(a1-3)[Gal(a1-3)Gal(b1-3)GlcNAc(b1-2)Man(a1-6)]Man(b1-4)GlcNAc(b1-4)GlcNAc
# Summary of the method: as §1
# [3] = biological target: Gal(a1-3)Gal(b1-3)GlcNAc(b1-3)GalNAc
# Summary of the method: as §1
# [4] = biological target: Gal(a1-3)Gal(b1-3)GlcNAc(b1-6)GalNAc
# Summary of the method: as §1
# [5] = biological target: Gal(a1-3)Gal(b1-3)[Fuc(a1-4)]GlcNAc(b1-2)Man(a1-3)[Gal(a1-3)Gal(b1-3)[Fuc(a1-4)]GlcNAc(b1-2)Man(a1-6)]Man(b1-4)GlcNAc(b1-4)GlcNAc
# Summary of the method: as §1
# Gal(a1-3)Gal(b1-4)Glc = biological target: Gal(a1-3)Gal(b1-4)Glc
# Summary of the method: as §1
# Gal(a1-3)Gal(b1-4)GlcNAc = biological target: Gal(a1-3)Gal(b1-4)GlcNAc
# Summary of the method: as §1
# [6] = biological target: Gal(a1-3)Gal(b1-4)GlcNAc(b1-2)Man
# Summary of the method: as §1
# [7] = biological target: Gal(a1-3)Gal(b1-4)GlcNAc(b1-2)Man(a1-3)[Gal(a1-3)Gal(b1-4)GlcNAc(b1-2)Man(a1-6)]Man(b1-4)GlcNAc(b1-4)GlcNAc
# Summary of the method: as §1
# [8] = biological target: Gal(a1-3)Gal(b1-4)GlcNAc(b1-3)GalNAc
# Summary of the method: as §1
# [9] = biological target: Gal(a1-3)Gal(b1-4)GlcNAc(b1-6)GalNAc
# Summary of the method: as §1
# [10] = biological target: Gal(a1-3)Gal(b1-4)[Fuc(a1-3)]GlcNAc
# Summary of the method: as §1
# [11] = biological target: Gal(a1-3)Gal(b1-4)[Fuc(a1-3)]GlcNAc(b1-2)Man(a1-3)[Gal(a1-3)Gal(b1-4)[Fuc(a1-3)]GlcNAc(b1-2)Man(a1-6)]Man(b1-4)GlcNAc(b1-4)GlcNAc
# Summary of the method: as §1
# Gal(a1-3)GalNAc = biological target: Gal(a1-3)GalNAc
# Summary of the method: as §1
# [12] = biological target: Gal(a1-3)[Gal(a1-4)]Gal(b1-4)GlcNAc
# Summary of the method: as §1
# [13] = biological target: Gal(a1-4)Gal(b1-3)GlcNAc(b1-2)Man(a1-3)[Gal(a1-4)Gal(b1-3)GlcNAc(b1-2)Man(a1-6)]Man(b1-4)GlcNAc(b1-4)GlcNAc
# Summary of the method: as §1
# Gal(a1-4)Gal(b1-4)Glc = biological target: Gal(a1-4)Gal(b1-4)Glc
# Summary of the method: as §1
# Gal(a1-4)Gal(b1-4)GlcNAc = biological target: Gal(a1-4)Gal(b1-4)GlcNAc
# Summary of the method: as §1
# [14] = biological target: Gal(a1-4)Gal(b1-4)GlcNAc(b1-2)Man(a1-3)[Gal(a1-4)Gal(b1-4)GlcNAc(b1-2)Man(a1-6)]Man(b1-4)GlcNAc(b1-4)GlcNAc
# Summary of the method: as §1
# [15] = biological target: Gal(a1-4)Gal(b1-4)GlcNAc(b1-3)Gal(b1-4)Glc
# Summary of the method: as §1
# Gal(a1-4)GlcNAc = biological target: Gal(a1-4)GlcNAc
# Summary of the method: as §1
# Gal(a1-6)Glc = biological target: Gal(a1-6)Glc
# Summary of the method: as §1
# Gal(b1-2)Gal = biological target: Gal(b1-2)Gal
# Summary of the method: as §1
# Gal(b1-3)Gal = biological target: Gal(b1-3)Gal
# Summary of the method: as §1
# Gal(b1-3)Gal(b1-4)GlcNAc = biological target: Gal(b1-3)Gal(b1-4)GlcNAc
# Summary of the method: as §1
# Gal(b1-3)GalNAc = biological target: Gal(b1-3)GalNAc
# Summary of the method: as §1
# [16] = biological target: Gal(b1-3)GalNAc(a1-3)[Fuc(a1-2)]Gal(b1-4)Glc
# Summary of the method: as §1
# [17] = biological target: Gal(b1-3)GalNAc(a1-3)[Fuc(a1-2)]Gal(b1-4)GlcNAc
# Summary of the method: as §1
# Gal(b1-3)GalNAc(b1-3)Gal = biological target: Gal(b1-3)GalNAc(b1-3)Gal
# Summary of the method: as §1
# [18] = biological target: Gal(b1-3)GalNAc(b1-3)Gal(a1-4)Gal(b1-4)Glc
# Summary of the method: as §1
# [19] = biological target: Gal(b1-3)GalNAc(b1-4)Gal(b1-4)Glc
# Summary of the method: as §1
# [20] = biological target: Gal(b1-3)GalNAc(b1-4)[Neu5Ac(a2-3)]Gal(b1-4)Glc
# Summary of the method: as §1
# Gal(b1-3)GlcNAc = biological target: Gal(b1-3)GlcNAc
# Summary of the method: as §1
# [21] = biological target: Gal(b1-3)GlcNAc(a1-3)Gal(b1-4)GlcNAc
# Summary of the method: as §1
# [22] = biological target: Gal(b1-3)GlcNAc(a1-6)Gal(b1-4)GlcNAc
# Summary of the method: as §1
# Gal(b1-3)GlcNAc(b1-2)Man = biological target: Gal(b1-3)GlcNAc(b1-2)Man
# Summary of the method: as §1
# [23] = biological target: Gal(b1-3)GlcNAc(b1-2)Man(a1-3)[Gal(b1-3)GlcNAc(b1-2)Man(a1-6)]Man(b1-4)GlcNAc(b1-4)GlcNAc
# Summary of the method: as §1
binder,measurement,setting,value
B1,glycan array binding signal (z-score),Gal(a1-3)Gal(b1-3)GlcNAc,-0.563
same,glycan array binding signal (z-score),[1],-0.641
same,glycan array binding signal (z-score),[2],3.47
same,glycan array binding signal (z-score),[3],2.79
same,glycan array binding signal (z-score),[4],0.993
same,glycan array binding signal (z-score),[5],0.369
same,glycan array binding signal (z-score),Gal(a1-3)Gal(b1-4)Glc,-0.763
same,glycan array binding signal (z-score),Gal(a1-3)Gal(b1-4)GlcNAc,-0.983
same,glycan array binding signal (z-score),[6],-0.102
same,glycan array binding signal (z-score),[7],1.55
same,glycan array binding signal (z-score),[8],-1.15
same,glycan array binding signal (z-score),[9],-0.128
same,glycan array binding signal (z-score),[10],-1.04
same,glycan array binding signal (z-score),[11],0.993
same,glycan array binding signal (z-score),Gal(a1-3)GalNAc,1.36
same,glycan array binding signal (z-score),[12],0.241
same,glycan array binding signal (z-score),[13],2.06
same,glycan array binding signal (z-score),Gal(a1-4)Gal(b1-4)Glc,0.901
same,glycan array binding signal (z-score),Gal(a1-4)Gal(b1-4)GlcNAc,-0.269
same,glycan array binding signal (z-score),[14],-0.011
same,glycan array binding signal (z-score),[15],-0.067
same,glycan array binding signal (z-score),Gal(a1-4)GlcNAc,-0.879
same,glycan array binding signal (z-score),Gal(a1-6)Glc,-0.191
same,glycan array binding signal (z-score),Gal(b1-2)Gal,-0.551
same,glycan array binding signal (z-score),Gal(b1-3)Gal,0.084
same,glycan array binding signal (z-score),Gal(b1-3)Gal(b1-4)GlcNAc,-0.051
same,glycan array binding signal (z-score),Gal(b1-3)GalNAc,-0.409
same,glycan array binding signal (z-score),[16],1.01
same,glycan array binding signal (z-score),[17],0.078
same,glycan array binding signal (z-score),Gal(b1-3)GalNAc(b1-3)Gal,-0.621
same,glycan array binding signal (z-score),[18],0.438
same,glycan array binding signal (z-score),[19],-0.798
same,glycan array binding signal (z-score),[20],-0.732
same,glycan array binding signal (z-score),Gal(b1-3)GlcNAc,0.211
same,glycan array binding signal (z-score),[21],-0.674
same,glycan array binding signal (z-score),[22],0.451
same,glycan array binding signal (z-score),Gal(b1-3)GlcNAc(b1-2)Man,-0.152
same,glycan array binding signal (z-score),[23],0.099

# 2 records drawn at random from the list so far, as already listed:
binder,measurement,setting,value
B1,glycan array binding signal (z-score),Gal(a1-3)GalNAc,1.36
same,glycan array binding signal (z-score),[16],1.01
